Source: the supplement of paper PMC10849652
Some of the results follow.

By UniProt entry, the sequences of proteins in these tests, tags left out. Where a name states a change or a piece, a line headed by the entry shows the natural chain unless it says otherwise.
UniProt O60732: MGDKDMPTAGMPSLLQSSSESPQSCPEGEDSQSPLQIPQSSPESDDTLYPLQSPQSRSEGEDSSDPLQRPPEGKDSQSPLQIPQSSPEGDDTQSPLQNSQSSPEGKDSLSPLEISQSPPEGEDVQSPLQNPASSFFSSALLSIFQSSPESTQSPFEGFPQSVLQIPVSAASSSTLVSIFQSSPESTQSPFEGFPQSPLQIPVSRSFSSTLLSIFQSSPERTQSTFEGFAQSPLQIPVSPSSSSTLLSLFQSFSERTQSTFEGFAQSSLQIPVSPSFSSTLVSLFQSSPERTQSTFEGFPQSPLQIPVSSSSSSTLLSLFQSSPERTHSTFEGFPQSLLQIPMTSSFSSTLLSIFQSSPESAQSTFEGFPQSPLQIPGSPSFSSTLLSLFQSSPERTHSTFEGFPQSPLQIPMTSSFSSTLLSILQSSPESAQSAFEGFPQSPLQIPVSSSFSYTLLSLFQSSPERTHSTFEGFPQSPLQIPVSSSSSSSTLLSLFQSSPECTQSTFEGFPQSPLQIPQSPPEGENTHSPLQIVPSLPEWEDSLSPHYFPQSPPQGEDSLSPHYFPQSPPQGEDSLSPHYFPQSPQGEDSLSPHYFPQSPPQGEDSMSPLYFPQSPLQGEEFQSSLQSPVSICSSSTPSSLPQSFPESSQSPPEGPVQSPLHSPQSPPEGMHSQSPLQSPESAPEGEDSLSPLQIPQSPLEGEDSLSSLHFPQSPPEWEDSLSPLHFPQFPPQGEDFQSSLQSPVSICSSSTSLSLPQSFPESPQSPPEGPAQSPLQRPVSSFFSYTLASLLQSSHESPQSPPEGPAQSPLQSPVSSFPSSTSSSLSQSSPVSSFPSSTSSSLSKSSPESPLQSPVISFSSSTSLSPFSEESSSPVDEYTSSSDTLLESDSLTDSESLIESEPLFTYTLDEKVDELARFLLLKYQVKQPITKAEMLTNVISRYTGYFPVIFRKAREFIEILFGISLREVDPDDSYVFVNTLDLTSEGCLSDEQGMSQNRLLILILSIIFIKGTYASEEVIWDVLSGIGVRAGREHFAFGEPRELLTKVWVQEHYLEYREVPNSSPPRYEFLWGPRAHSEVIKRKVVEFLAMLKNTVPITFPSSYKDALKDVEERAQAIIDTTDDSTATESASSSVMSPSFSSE
UniProt O95372: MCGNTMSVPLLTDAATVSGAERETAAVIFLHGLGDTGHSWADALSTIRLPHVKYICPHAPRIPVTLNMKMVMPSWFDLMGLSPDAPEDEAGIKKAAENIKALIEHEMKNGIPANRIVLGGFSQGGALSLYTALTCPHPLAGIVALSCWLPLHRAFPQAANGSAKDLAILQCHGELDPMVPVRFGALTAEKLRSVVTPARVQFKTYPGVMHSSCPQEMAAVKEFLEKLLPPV
UniProt Q9UNF1: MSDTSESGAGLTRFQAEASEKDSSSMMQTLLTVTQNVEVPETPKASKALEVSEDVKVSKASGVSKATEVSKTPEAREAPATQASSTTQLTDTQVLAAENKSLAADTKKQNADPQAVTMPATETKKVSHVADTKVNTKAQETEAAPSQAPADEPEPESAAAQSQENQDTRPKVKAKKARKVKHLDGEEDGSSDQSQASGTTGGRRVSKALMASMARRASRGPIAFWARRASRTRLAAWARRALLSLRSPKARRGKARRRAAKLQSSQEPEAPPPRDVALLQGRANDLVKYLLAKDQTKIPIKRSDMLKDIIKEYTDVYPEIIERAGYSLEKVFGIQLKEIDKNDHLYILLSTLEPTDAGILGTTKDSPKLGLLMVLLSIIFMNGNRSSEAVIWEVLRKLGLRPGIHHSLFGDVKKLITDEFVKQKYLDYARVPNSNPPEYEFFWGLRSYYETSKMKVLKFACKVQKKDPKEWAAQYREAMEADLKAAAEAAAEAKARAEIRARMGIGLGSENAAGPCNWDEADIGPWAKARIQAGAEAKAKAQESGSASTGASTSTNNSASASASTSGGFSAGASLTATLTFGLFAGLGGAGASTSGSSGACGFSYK
UniProt Q16539, whole entry, looked up: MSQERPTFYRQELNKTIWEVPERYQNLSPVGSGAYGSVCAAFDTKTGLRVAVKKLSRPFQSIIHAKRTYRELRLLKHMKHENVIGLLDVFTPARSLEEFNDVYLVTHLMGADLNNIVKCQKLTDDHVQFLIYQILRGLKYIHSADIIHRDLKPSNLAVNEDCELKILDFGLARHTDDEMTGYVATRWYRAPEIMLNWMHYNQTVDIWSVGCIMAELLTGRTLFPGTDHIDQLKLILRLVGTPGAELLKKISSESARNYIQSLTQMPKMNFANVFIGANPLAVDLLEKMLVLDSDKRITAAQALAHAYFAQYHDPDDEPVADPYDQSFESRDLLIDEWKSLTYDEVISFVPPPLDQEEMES
UniProt Q5U5X0: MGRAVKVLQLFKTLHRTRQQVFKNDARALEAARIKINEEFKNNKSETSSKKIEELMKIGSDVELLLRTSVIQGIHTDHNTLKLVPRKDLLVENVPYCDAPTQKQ
UniProt Q9UPY8, whole entry, looked up: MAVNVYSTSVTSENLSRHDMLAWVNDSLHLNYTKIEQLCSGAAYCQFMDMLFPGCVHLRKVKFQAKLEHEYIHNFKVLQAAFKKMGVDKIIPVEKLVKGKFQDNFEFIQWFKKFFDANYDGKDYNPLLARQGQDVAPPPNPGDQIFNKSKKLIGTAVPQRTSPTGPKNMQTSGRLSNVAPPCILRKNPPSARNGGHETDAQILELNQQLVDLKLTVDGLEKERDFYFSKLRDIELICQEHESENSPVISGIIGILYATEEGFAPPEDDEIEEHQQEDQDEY
UniProt Q9BSK0: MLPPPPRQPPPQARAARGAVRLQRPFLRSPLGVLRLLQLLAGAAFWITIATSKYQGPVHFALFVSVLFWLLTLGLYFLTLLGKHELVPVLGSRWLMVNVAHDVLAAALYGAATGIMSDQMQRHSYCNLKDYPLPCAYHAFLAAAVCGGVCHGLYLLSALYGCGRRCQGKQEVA
UniProt Q9NQ48: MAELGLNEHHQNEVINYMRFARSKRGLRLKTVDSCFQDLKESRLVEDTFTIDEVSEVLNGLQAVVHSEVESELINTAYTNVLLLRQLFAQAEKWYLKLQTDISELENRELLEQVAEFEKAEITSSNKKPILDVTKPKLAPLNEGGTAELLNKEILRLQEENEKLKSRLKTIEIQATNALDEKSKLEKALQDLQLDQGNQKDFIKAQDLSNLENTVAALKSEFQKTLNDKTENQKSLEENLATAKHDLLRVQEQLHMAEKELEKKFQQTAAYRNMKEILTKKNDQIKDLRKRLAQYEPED
UniProt P28482, whole entry, looked up: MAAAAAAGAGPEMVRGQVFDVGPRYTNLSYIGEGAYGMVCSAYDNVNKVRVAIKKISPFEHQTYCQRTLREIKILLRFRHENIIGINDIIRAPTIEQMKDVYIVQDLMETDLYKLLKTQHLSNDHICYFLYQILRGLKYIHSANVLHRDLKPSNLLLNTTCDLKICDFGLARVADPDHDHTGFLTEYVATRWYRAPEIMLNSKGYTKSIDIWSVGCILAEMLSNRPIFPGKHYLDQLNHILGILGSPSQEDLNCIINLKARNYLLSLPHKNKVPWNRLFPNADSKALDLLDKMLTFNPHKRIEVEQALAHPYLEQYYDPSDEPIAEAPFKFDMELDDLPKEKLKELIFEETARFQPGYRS
UniProt P49137, whole entry, looked up: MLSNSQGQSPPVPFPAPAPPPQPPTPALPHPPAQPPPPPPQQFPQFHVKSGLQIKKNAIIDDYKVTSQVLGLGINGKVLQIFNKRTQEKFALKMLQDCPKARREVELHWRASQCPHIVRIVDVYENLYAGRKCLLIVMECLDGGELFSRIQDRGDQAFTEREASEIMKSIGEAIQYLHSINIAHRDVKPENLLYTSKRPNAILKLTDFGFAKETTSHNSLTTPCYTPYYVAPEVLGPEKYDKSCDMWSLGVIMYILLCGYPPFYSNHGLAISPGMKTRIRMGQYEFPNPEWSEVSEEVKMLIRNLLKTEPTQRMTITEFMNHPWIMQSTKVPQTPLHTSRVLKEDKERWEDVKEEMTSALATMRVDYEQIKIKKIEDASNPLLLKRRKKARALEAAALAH
UniProt Q9Y383: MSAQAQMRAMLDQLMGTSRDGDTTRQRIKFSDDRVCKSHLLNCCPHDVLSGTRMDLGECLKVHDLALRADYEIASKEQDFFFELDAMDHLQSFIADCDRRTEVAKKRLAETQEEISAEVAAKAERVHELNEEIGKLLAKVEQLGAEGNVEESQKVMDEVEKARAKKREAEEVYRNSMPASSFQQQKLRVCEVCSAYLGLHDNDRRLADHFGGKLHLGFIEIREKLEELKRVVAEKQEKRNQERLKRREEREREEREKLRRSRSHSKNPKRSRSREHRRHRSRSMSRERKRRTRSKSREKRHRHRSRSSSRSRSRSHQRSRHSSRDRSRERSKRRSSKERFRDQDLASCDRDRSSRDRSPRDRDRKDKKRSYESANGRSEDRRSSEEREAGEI
UniProt Q6ZN28: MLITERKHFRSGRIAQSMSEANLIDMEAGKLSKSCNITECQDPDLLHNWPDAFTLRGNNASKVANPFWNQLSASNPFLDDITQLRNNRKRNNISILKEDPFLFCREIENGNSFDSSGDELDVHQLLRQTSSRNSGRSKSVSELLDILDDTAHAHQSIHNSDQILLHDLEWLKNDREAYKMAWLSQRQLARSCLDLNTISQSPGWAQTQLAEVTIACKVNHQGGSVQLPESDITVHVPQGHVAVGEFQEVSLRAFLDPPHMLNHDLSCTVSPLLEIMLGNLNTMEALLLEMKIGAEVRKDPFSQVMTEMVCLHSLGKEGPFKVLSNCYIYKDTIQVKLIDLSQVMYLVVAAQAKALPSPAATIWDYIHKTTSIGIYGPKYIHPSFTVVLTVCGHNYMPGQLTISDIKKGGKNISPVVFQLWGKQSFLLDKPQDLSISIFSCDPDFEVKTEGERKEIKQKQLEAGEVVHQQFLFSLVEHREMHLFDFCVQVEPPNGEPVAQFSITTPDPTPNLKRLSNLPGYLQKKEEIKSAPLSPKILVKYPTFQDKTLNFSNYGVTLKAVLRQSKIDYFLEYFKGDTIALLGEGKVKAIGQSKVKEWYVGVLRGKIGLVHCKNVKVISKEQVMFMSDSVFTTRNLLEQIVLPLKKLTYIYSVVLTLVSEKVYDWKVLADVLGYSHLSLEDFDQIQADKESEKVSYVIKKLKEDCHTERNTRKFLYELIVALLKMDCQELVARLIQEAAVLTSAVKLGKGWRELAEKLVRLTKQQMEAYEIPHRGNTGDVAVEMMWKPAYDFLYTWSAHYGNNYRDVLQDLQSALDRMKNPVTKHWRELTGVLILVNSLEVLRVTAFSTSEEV
UniProt P45985: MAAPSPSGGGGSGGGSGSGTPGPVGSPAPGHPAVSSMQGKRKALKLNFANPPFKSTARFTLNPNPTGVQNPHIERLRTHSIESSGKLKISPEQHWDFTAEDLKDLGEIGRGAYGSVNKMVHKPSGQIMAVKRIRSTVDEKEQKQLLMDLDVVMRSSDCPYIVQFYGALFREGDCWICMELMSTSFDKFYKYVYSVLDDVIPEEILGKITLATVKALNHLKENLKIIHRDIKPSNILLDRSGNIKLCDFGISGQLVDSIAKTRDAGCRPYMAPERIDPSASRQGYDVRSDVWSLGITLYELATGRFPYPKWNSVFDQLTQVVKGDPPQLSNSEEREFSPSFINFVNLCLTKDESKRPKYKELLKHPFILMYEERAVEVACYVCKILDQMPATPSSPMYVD
UniProt P56192: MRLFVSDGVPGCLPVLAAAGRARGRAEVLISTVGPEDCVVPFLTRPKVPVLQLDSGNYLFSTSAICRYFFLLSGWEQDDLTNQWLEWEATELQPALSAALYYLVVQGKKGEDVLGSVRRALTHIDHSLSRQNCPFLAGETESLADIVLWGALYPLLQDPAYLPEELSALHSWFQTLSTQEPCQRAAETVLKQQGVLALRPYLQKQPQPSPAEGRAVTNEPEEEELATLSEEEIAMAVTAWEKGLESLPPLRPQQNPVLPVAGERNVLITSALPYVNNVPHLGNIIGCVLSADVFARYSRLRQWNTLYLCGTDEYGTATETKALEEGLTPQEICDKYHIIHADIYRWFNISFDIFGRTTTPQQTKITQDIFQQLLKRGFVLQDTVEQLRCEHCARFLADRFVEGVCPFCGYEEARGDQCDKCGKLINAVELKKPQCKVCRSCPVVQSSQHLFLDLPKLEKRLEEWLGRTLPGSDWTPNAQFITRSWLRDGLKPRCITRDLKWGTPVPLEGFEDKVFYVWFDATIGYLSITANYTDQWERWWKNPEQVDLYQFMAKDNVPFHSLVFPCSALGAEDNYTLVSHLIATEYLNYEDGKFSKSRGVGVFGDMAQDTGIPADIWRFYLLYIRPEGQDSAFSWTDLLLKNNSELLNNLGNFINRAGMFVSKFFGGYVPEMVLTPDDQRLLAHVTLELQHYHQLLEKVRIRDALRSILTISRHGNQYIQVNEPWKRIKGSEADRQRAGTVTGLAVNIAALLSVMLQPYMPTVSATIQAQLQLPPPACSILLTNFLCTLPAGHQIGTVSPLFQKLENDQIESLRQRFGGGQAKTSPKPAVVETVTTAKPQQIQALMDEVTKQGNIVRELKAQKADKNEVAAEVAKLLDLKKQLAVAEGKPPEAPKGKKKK

compound: NCC(=O)Nc1ccc(-n2nc(C(F)(F)F)cc2-c2ccc3c(ccc4ccccc43)c2)cc1; assay: log2 fold change, soluble protein after heating vs DMSO (PISA); higher = thermal stabilisation; K562 lysate, 10 uM; active = over 0.2 and 3.5 SD of the protein, either way, in both replicates (recomputed)
Procedure, shortened: (§1)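 Pellets of K562 cells were dounce-homogenised in PBS pH 7.4 with 1 mM MgCl2, and the crude extract was held at 1 mg/mL protein for a 30 min treatment with 10 μM compound. Aliquots were heated for 3 min over 48°C-58°C and pooled before NP-40 was added to 0.5% at 4°C. The supernatant from 21,000xg for 90 min was quantified by TMTpro 16plex LC-MS/MS with channel sums equalised. Values are reported from duplicates as log-two fold change in thermal stability relative to solvent controls.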

| Target | log2 fold change |
| --- | --- |
| MAGEC1 (UniProt O60732) | inactive: 0.007 |
| LYPLA2 (UniProt O95372) | inactive: -0.127 |
| MAGED2 (UniProt Q9UNF1) | inactive: 0.13 |
| MAPK14 isoform 2 (UniProt Q16539) | inactive: -0.06 |
| LTF (UniProt P02788) | inactive: -0.034 |
| MAN2A2 (UniProt P49641) | inactive: -0.003 |
| MAGED1 isoform 2 (UniProt Q9Y5V3) | inactive: 0.018 |
| LYRM7 (UniProt Q5U5X0) | inactive: -0.01 |
| MAPRE3 (UniProt Q9UPY8) | inactive: -0.056 |
| MAPK8 isoform 3 (UniProt P45983) | inactive: 0.064 |
| MARVELD1 (UniProt Q9BSK0) | inactive: 0.006 |
| MANEA (UniProt Q5SRI9) | inactive: 0 |
| LZIC isoform 2 (UniProt Q8WZA0) | inactive: -0.012 |
| MANBA (UniProt O00462) | inactive: -0.044 |
| LZTFL1 (UniProt Q9NQ48) | inactive: 0.07 |
| MAGOHB (UniProt Q96A72) | inactive: 0.013 |
| MAPK1 (UniProt P28482) | inactive: -0.027 |
| MAD1L1 (UniProt Q9Y6D9) | inactive: 0.041 |
| MARK3 (UniProt P27448) | inactive: -0.035 |
| LZTR1 (UniProt Q8N653) | inactive: -0.022 |

| Target | log2 fold change |
| --- | --- |
| MAGT1 (UniProt Q9H0U3) | inactive: 0.008 |
| MAP2K5 (UniProt Q13163) | inactive: -0.111 |
| MAPRE3 isoform 2 (UniProt Q9UPY8) | inactive: 0.113 |
| MAPT isoform 7 (UniProt P10636) | inactive: 0.118 |
| MACF1 (UniProt H3BQK9) | inactive: 0.009 |
| MAPKAPK2 (UniProt P49137) | inactive: -0.019 |
| LUC7L2 (UniProt Q9Y383) | inactive: -0.004 |
| MAIP1 (UniProt Q8WWC4) | inactive: -0.012 |
| LTN1 isoform 3 (UniProt O94822) | inactive: 0.057 |
| LYRM1 (UniProt O43325) | inactive: 0.164 |
| LYZ (UniProt P61626) | inactive: -0.068 |
| LUZP1 (UniProt Q86V48) | inactive: 0.094 |
| MACC1 (UniProt Q6ZN28) | inactive: -0.006 |
| MAP2K4 isoform 2 (UniProt P45985) | inactive: -0.119 |
| LUC7L (UniProt Q9NQ29) | inactive: 0.003 |
| MAPK14 (UniProt Q16539) | inactive: -0.007 |
| MARF1 (UniProt Q9Y4F3) | inactive: 0.006 |
| MARS (UniProt P56192) | inactive: 0.028 |
| MAEA (UniProt Q7L5Y9) | inactive: -0.056 |

compound: O=C(CCCCCCC(=O)Nc1ccccc1)NO [vorinostat]; assay: as above
Procedure, shortened: as §1

| Target | log2 fold change |
| --- | --- |
| MAGEC1 (UniProt O60732) | inactive: -0.091 |
| LYPLA2 (UniProt O95372) | inactive: 0.035 |
| MAGED2 (UniProt Q9UNF1) | inactive: -0.03 |
| MAPK14 isoform 2 (UniProt Q16539) | inactive: -0.328 |
| LTF (UniProt P02788) | inactive: 0.054 |
| MAN2A2 (UniProt P49641) | inactive: 0.088 |
| MAGED1 isoform 2 (UniProt Q9Y5V3) | inactive: 0.005 |
| LYRM7 (UniProt Q5U5X0) | inactive: -0.025 |
| MAPRE3 (UniProt Q9UPY8) | inactive: -0.077 |
| MAPK8 isoform 3 (UniProt P45983) | active: -0.395 |
| MARVELD1 (UniProt Q9BSK0) | inactive: 0.078 |
| MANEA (UniProt Q5SRI9) | inactive: 0.217 |
| LZIC isoform 2 (UniProt Q8WZA0) | inactive: 0.132 |
| MANBA (UniProt O00462) | inactive: 0.089 |
| LZTFL1 (UniProt Q9NQ48) | inactive: 0.069 |
| MAGOHB (UniProt Q96A72) | inactive: -0.034 |
| MAPK1 (UniProt P28482) | inactive: 0.039 |
| MAD1L1 (UniProt Q9Y6D9) | inactive: -0.022 |
| MARK3 (UniProt P27448) | inactive: -0.069 |

| Target | log2 fold change |
| --- | --- |
| LZTR1 (UniProt Q8N653) | active: -0.472 |
| MAGT1 (UniProt Q9H0U3) | inactive: 0.097 |
| MAP2K5 (UniProt Q13163) | inactive: -0.293 |
| MAPRE3 isoform 2 (UniProt Q9UPY8) | inactive: -0.113 |
| MACF1 (UniProt H3BQK9) | inactive: -0.09 |
| MAPKAPK2 (UniProt P49137) | active: -0.36 |
| LUC7L2 (UniProt Q9Y383) | inactive: 0.116 |
| MAIP1 (UniProt Q8WWC4) | inactive: 0.002 |
| LTN1 isoform 3 (UniProt O94822) | active: -0.58 |
| LYRM1 (UniProt O43325) | inactive: 0.3 |
| LYZ (UniProt P61626) | inactive: 0.12 |
| LUZP1 (UniProt Q86V48) | active: -0.248 |
| MACC1 (UniProt Q6ZN28) | inactive: -0.118 |
| MAP2K4 isoform 2 (UniProt P45985) | inactive: -0.216 |
| LUC7L (UniProt Q9NQ29) | inactive: 0.136 |
| MAPK14 (UniProt Q16539) | inactive: -0.294 |
| MARF1 (UniProt Q9Y4F3) | active: -0.471 |
| MARS (UniProt P56192) | inactive: -0.211 |
| MAEA (UniProt Q7L5Y9) | inactive: -0.123 |
